Data published in PubChem BioAssay AID493014 (National Center for Advancing Translational Sciences (NCATS), 2011).
“And” between values parts separate entries of the source, which are not always exact repeats. Equal values may be shown once. The list shows a part of the results. Shown are side measurements of this screen, not its main read-out; they come without a call. Compounds called inactive in the main read-out are mostly missing here. The note in brackets gives the kind of curve behind each potency; many fits are weak.

Experiment: qHTS Assay to Find Inhibitors of Chronic Active B-Cell Receptor Signaling
Settings: ABC-DLBCL IkBa-CBG/CBR reporter, luminescence ratio (green luciferase fused to IkBa over red control in TMD8 lymphoma cells), 4 h
How it was run: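 TMD8 ABC-DLBCL cells carrying doxycycline-inducible green luciferase fused to IkappaBalpha plus unfused red luciferase were exposed to compounds (up to 46 uM) for 4 hrs at 37C. Activity came from the overlap-corrected green/red luminescence ratio.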

[1] = measured here: CBR red luminescence, cell number
[2] = measured here: IkBa-CBG green luminescence

Q: Which AC50 [1] does the source give for `Cc1cn(-c2cccnc2)c(C)c1CNC[C@H]1O[C@@H](n2cnc3c(N)ncnc32)[C@H](O)[C@@H]1O` here?
A: The AC50 was 29.1 µM [rising, single point].

Q: What about the AC50 [2] of the same compound?
A: Its AC50 is 20.6 µM [falling, partial curve].

Q: With `O=C1C(Cl)=C(N2CCOCC2)C(=O)N1c1cccc(Cl)c1` as the compound, how does the AC50 [1] read?
A: The AC50 was 20 µM [falling, single point].

Q: Which AC50 [1] does the source give for `CCOc1ccc(-c2csc(N)c2C(=O)OC)cc1` here?
A: The AC50 was 20.6 µM [rising, partial curve, poor fit].

Q: With `CC(=O)c1sc(NC(=O)c2cccc(N3C(=O)CCC3=O)c2)nc1-c1ccccc1` as the compound, how does the AC50 [1] read?
A: The AC50 was 0.651 µM [falling, partial curve, poor fit].

Q: With `CCC(C)[C@H](NC(=O)NCc1ccccc1Cl)C(=O)O` (stereo partly drawn) as the compound, how does the AC50 [1] read?
A: Its AC50 is 29.1 µM [falling, single point].

Q: Which AC50 [1] does the source give for `COc1ccc2nc(NC(=O)CSc3nc4ccccc4o3)sc2c1` here?
A: Its AC50 is 20 µM [rising, single point].

Q: With `CC(=O)Nc1ccc(S(=O)(=O)NCC(=O)OC(C)c2ccccc2Cl)cc1` (stereo not drawn) as the compound, how does the AC50 [1] read?
A: The AC50 was 18.4 µM [rising, single point].

Q: And the AC50 [2]?
A: The AC50 was 29.1 µM [falling, partial curve, poor fit].

Q: For `CCc1ccc(N(C(=O)CCC(=O)Nc2cc(C)on2)C(C(=O)NC2CCCC2)c2ccco2)cc1` (stereo not drawn), which AC50 [1] is on record?
A: The AC50 was 20.6 µM [rising, single point].

Q: For `O=C(CSc1nc(=O)n(CCCN2CCOCC2)c2c1CCCC2)Nc1ccc(F)cc1`, which AC50 [1] is on record?
A: The AC50 was 4.11 µM [falling, single point].

Q: Which AC50 [1] does the source give for `CCOC(=O)[C@H]1[C@H]2COc3cc(OC)ccc3[C@@H]2N2C(=O)c3ccc(F)cc3NC(=O)[C@@]12C` here?
A: Its AC50 is 20.6 µM [falling, single point].

Q: For `COc1ccc(-n2c(SCC(=O)Nc3cc(C)on3)nc3ccccc3c2=O)cc1Cl`, which AC50 [1] is on record?
A: Its AC50 is 35.5 µM [rising, single point].

Q: Which AC50 [1] does the source give for `Cc1ccc(CNC(=O)CSc2c3c(nc4ccc(Cl)cc24)CCCC3)o1` here?
A: Its AC50 is 11.6 µM [falling, partial curve].

Q: With `CCOc1ccccc1NC(=O)NNC(=O)c1ccc2ccccc2c1` as the compound, how does the AC50 [1] read?
A: The AC50 was 25.1 µM [falling, single point].

Q: With `C=CCCC(=O)Nc1nc(C)c(-c2csc(Nc3ccc(Cl)cc3)n2)s1` as the compound, how does the AC50 [1] read?
A: Its AC50 is 0.316 µM [rising, full curve, poor fit].

Q: What about the AC50 [2] of the same compound?
A: The AC50 was 14.1 µM [rising, partial curve, poor fit].

Q: For `CS(=O)(=O)N1CCN(C(=O)c2csc3ccccc23)CC1`, which AC50 [1] is on record?
A: Its AC50 is 16.4 µM [rising, single point].

Q: Which AC50 [1] does the source give for `N#Cc1c(N)nc2c(c1N)CC(C(F)(F)F)O2` (stereo not drawn) here?
A: Its AC50 is 35.5 µM [falling, single point].

Q: For `Cc1cccc(Nc2nnc(SCC(=O)Nc3ccccc3[N+](=O)[O-])s2)c1`, which AC50 [1] is on record?
A: Its AC50 is 20.6 µM [falling, single point].

Q: Which AC50 [1] does the source give for `O=C(c1ccc(F)cc1)C1CCN(C(=O)N2CCOCC2)CC1` here?
A: The AC50 was 7.94 µM [rising, partial curve, poor fit].

Q: For `O=C(Nc1ccccc1)OC1CC2CC1C1CCCC21` (stereo not drawn), which AC50 [1] is on record?
A: Its AC50 is 10 µM [falling, single point].

Q: Which AC50 [1] does the source give for `CC1S/C(=N/N=C/c2cccs2)NC1=O` (stereo not drawn) here?
A: The AC50 was 2.31 µM [rising, partial curve, poor fit].

Q: With `Cc1ccc(CN2C(=O)CCC2C(=O)NCc2ccc(F)cc2)cc1` (stereo not drawn) as the compound, how does the AC50 [1] read?
A: The AC50 was 4.47 µM [rising, full curve, poor fit].

Q: For `Cc1cc(-c2nnc3n2N=C(c2ccc(-c4ccccc4)cc2)CS3)n[nH]1`, which AC50 [1] is on record?
A: Its AC50 is 35.5 µM [falling, single point].

Q: With `CNC(=O)CN(c1cc(C)ccc1OC)S(=O)(=O)c1ccc(C)cc1` as the compound, how does the AC50 [1] read?
A: The AC50 was 6.51 µM [falling, single point].

Q: With `CCn1cc(CN2CCC(C(=O)Nc3cccc(-c4cccc(Cl)c4)c3)CC2)cn1` as the compound, how does the AC50 [1] read?
A: The AC50 was 15.8 µM [falling, partial curve, poor fit].

Q: Which AC50 [1] does the source give for `O=C(CCC1COc2ccccc2O1)NCc1ccccc1` (stereo not drawn) here?
A: Its AC50 is 2.06 µM [rising, single point].

Q: Which AC50 [1] does the source give for `CCCC1(C(=O)OCC)NC(c2ccc(N(C)C)cc2)C2C(=O)N(c3ccc(OCC)cc3)C(=O)C21` (stereo not drawn) here?
A: The AC50 was 12.6 µM [rising, single point].

Q: Which AC50 [1] does the source give for `COc1ccc2nc(/C=N/NC(=O)[C@H](CCSC)NC(=O)OC(C)(C)C)ccc2c1` here?
A: The AC50 was 1.84 µM [rising, full curve, poor fit].

Q: For `CCNC(=O)COC(=O)c1cc(S(=O)(=O)N2CCCCC2)ccc1C`, which AC50 [1] is on record?
A: The AC50 was 2.51 µM [rising, partial curve, poor fit].

Q: Which AC50 [1] does the source give for `O=C(CCc1ccccc1)N1CCN(c2ccc(F)cc2)CC1` here?
A: Its AC50 is 7.94 µM [rising, partial curve, poor fit].

Q: With `C/C=C/C=C/C(=O)Nc1cccc(C2=NOC3(C2)C[C@H](C(N)=O)N(C(=O)CC(c2ccccc2)c2ccccc2)C3)c1` (stereo partly drawn) as the compound, how does the AC50 [1] read?
A: The AC50 was 3.16 µM [falling, partial curve, poor fit].

Q: With `Cc1ccc(C)c(OCC(=O)Nc2cccc(C(=O)O)c2)c1C` as the compound, how does the AC50 [1] read?
A: The AC50 was 0.92 µM [rising, full curve].

Q: Which AC50 [1] does the source give for `COC(=O)C1=C(C)N(Cc2ccccc2)C(=NCC(C)C)N[C@H]1c1cccc(F)c1` here?
A: Its AC50 is 20 µM [falling, partial curve, poor fit] and 16.4 µM [falling, partial curve].

Q: For `COc1ccc(Nc2nc(N)nc(C(F)(F)F)n2)c(OC)c1`, which AC50 [1] is on record?
A: Its AC50 is 2.06 µM [rising, full curve, poor fit].

Q: For `O=C(NCC1CC1(Cl)Cl)Nc1ccc(Cl)c(Cl)c1` (stereo not drawn), which AC50 [1] is on record?
A: Its AC50 is 35.5 µM [falling, single point].

Q: With `N/C(Cc1ccccc1)=N\OC(=O)c1cccc2ccccc12` as the compound, how does the AC50 [1] read?
A: The AC50 was 10.3 µM [rising, partial curve].

Q: Which AC50 [1] does the source give for `Cc1ccc(NC(=S)N=Nc2c(O)[nH]c3ccccc23)cc1` here?
A: The AC50 was 3.55 µM [rising, single point].

Q: And the AC50 [2]?
A: The AC50 was 5.62 µM [falling, single point].

Q: For `Cc1nc(-c2ccccn2)sc1C(=O)O`, which AC50 [1] is on record?
A: Its AC50 is 14.1 µM [falling, single point].

Q: And the AC50 [2]?
A: Its AC50 is 0.1 µM [rising, full curve, poor fit].

Q: For `CCN(CC)C(=O)Oc1ccc(OC(=O)N(CC)CC)cc1`, which AC50 [1] is on record?
A: Its AC50 is 12.6 µM [rising, single point].
